The values below are quoted from earlier work in US20180105561A1, “ANALOGS OF SODIUM CHANNEL PEPTIDE TOXIN” (priority 2010, published 2018).

Amino acid sequences for entries named in this document (tags omitted).
UniProt Q9Y5Y9, whole entry, looked up: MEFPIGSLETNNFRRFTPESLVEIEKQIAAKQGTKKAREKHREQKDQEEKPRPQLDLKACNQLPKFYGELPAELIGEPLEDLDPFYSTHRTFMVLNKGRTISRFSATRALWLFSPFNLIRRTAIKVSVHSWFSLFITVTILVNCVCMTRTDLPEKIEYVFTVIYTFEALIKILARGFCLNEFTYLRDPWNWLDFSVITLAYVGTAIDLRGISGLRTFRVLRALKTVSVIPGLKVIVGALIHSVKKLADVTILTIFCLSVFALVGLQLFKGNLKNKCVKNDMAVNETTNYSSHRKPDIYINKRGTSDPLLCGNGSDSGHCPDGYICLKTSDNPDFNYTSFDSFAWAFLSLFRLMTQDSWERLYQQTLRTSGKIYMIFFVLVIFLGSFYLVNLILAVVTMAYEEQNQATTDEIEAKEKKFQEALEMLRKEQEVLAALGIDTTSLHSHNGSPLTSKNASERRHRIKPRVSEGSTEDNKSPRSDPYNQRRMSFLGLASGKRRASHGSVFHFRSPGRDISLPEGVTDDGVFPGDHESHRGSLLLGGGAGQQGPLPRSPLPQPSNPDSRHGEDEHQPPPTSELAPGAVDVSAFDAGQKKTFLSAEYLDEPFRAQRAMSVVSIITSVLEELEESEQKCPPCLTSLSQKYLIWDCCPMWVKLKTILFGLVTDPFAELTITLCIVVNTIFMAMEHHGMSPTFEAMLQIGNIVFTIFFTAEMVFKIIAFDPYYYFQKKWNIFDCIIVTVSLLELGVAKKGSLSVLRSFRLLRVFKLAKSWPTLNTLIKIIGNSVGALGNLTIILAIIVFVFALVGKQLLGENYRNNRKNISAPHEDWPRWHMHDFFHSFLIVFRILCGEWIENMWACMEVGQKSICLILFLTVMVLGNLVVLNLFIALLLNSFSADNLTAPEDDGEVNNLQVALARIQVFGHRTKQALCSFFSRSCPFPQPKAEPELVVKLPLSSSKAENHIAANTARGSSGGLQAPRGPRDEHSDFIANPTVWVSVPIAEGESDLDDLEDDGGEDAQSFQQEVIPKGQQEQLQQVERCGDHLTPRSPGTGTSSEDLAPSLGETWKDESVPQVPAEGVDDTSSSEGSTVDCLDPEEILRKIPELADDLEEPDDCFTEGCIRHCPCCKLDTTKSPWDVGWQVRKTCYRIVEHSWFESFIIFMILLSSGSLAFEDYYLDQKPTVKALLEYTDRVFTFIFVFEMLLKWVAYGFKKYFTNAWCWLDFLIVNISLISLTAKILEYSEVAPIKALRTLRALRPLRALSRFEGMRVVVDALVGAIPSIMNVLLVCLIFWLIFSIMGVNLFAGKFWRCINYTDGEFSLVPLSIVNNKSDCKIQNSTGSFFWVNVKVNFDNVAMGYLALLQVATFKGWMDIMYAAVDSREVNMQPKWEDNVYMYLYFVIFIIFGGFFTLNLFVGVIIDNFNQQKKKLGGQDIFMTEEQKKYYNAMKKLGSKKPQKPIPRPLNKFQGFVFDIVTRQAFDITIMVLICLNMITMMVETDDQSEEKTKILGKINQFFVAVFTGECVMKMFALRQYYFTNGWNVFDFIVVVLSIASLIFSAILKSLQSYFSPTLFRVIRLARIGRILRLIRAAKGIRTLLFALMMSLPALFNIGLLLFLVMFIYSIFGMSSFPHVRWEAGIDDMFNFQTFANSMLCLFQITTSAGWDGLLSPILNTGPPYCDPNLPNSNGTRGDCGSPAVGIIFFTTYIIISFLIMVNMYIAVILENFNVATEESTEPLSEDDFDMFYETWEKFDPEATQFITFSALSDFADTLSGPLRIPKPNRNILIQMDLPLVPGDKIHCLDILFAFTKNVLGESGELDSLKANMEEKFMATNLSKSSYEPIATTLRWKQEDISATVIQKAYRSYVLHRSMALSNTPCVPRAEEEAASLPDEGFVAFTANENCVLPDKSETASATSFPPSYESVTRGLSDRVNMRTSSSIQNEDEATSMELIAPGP

A word on the IC50: it is the concentration that inhibits the measured activity by half.

This data set has as its target Nav1.8 (Homo sapiens, UniProt Q9Y5Y9). As to conditions: read-out: TTX IC50; cited from earlier work.

For the compound `NC1=N[C@H](O)[C@H]2[C@H]3O[C@]4(O)O[C@@H]([C@@H](O)[C@@]2(N1)[C@@H]4O)[C@]3(O)CO` [TTX, tetrodotoxin], the IC50 is 50 µM.
